In PMC11612967:
No constants are given. Whether binding was seen depends on the method and setting. Binding seen in cells or lysates may run through a third protein. Some binding calls cover weakened binding; strength is not graded here.

Tests used:
Test in all cases: pull-down; S. pombe Smc5/6 subunits co-expressed in Sf9 cells by baculovirus, one subunit tagged (N- or C-terminal); pellets processed as for the small-scale expression in E. coli; single affinity step; Coomassie-stained SDS-PAGE
S. pombe Nse2 (S. pombe) = target: T1, S. pombe Nse2 (S. pombe) (UniProt Q4PIR3)
T1 sequence: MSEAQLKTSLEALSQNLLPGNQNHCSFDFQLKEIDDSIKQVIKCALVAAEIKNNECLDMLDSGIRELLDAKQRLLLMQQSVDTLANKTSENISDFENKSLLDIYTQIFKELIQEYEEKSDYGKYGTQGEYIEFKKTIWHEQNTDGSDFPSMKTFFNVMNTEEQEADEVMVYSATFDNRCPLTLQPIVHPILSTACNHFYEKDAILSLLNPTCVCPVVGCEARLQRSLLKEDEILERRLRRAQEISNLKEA

S. pombe Nse4 (S. pombe) = target: T2, S. pombe Nse4 (S. pombe) (UniProt Q6BDR8)
T2 sequence: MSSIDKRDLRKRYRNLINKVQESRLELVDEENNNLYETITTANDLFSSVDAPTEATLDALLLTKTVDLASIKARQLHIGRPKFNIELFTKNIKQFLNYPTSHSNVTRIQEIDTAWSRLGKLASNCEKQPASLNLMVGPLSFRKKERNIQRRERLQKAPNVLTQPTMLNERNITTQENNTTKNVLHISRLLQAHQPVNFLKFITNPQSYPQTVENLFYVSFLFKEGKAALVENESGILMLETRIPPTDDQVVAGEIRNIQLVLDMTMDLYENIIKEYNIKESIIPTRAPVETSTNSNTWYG

S. pombe Nse3 (S. pombe) = target: T3, S. pombe Nse3 (S. pombe) (UniProt Q9Y7U4)
T3 sequence: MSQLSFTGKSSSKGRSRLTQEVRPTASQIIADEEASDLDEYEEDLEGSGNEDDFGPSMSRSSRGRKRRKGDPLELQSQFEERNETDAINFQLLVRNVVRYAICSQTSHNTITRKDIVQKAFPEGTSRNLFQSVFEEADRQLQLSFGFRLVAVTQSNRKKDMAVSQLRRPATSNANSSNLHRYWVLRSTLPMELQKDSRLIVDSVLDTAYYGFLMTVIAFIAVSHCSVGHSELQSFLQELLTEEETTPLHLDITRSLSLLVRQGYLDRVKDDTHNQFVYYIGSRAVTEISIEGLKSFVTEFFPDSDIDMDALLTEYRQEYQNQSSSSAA

S. pombe Nse1 (S. pombe) = target: T4, S. pombe Nse1 (S. pombe) (UniProt Q53EK2)
T4 sequence: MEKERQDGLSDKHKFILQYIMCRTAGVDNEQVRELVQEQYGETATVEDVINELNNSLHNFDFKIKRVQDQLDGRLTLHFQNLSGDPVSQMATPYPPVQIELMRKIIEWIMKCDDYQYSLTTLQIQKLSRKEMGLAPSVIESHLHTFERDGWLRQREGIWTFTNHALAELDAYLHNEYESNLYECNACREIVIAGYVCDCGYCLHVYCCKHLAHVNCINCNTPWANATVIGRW

Measured: binding

B1: S. pombe Smc6 (protein, UniProt P53692 1-1140)
chain: MTTELTNVSLEEAITEKTSENRRKRDSDVLQTEEVDLSNVKRIRASRNQDNRPERQSRLQRSSSLIEQVRGNEDGENDVLNQTRETNSNFDNRVGVIECIHLVNFMCHDSLKINFGPRINFVIGHNGSGKSAILTGLTICLGAKASNTNRAPNMKSLVKQGKNYARISVTISNRGFEAYQPEIYGKSITIERTIRREGSSEYRLRSFNGTVISTKRDELDNICDHMGLQIDNPMNILTQDTARQFLGNSSPKEKYQLFMKGIQLKQLEENYSLIEQSLINTKNVLGNKKTGVSYLAKKEEEYKLLWEQSRETENLHNLLEQKKGEMVWAQVVEVEKELLLAEKEFQHAEVKLSEAKENLESIVTNQSDIDGKISSKEEVIGRAKGETDTTKSKFEDIVKTFDGYRSEMNDVDIQKRDIQNSINAAKSCLDVYREQLNTERARENNLGGSQIEKRANESNNLQREIADLSEQIVELESKRNDLHSALLEMGGNLTSLLTKKDSIANKISDQSEHLKVLEDVQRDKVSAFGKNMPQLLKLITRETRFQHPPKGPMGKYMTVKEQKWHLIIERILGNVINGFIVRSHHDQLILKELMRQSNCHATVVVGKYDPFDYSSGEPDSQYPTVLKIIKFDDDEVLHTLINHLGIEKMLLIEDRREAEAYMKRGIANVTQCYALDPRNRGYGFRIVSTQRSSGISKVTPWNRPPRIGFSSSTSIEAEKKILDDLKKQYNFASNQLNEAKIEQAKFKRDEQLLVEKIEGIKKRILLKRREVNSLESQELSVLDTEKIQTLERRISETEKELESYAGQLQDAKNEEHRIRDNQRPVIEEIRIYREKIQTETQRLSSLQTELSRLRDEKRNSEVDIERHRQTVESCTNILREKEAKKVQCAQVVADYTAKANTRCERVPVQLSPAELDNEIERLQMQIAEWRNRTGVSVEQAAEDYLNAKEKHDQAKVLVARLTQLLQALEETLRRRNEMWTKFRKLITLRTKELFELYLSQRNFTGKLVIKHQEEFLEPRVYPANRNLATAHNRHEKSKVSVQGLSGGEKSFATICMLLSIWEAMSCPLRCLDEFDVFMDAVNRLVSIKMMVDSAKDSSDKQFIFITPQDMGQIGLDKDVVVFRLSDPVVSSSALPPSTAP
binds: all assays above
